Record: PubChem BioAssay AID1259308 (NCATS, 2017)
Purpose: 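Candidate targets for better recombinant protein yield in mammalian cells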 (primary screen). Cell system: human HEK293 embryonic kidney cells stably expressing firefly luciferase (HEK-CMV-Luc2-Hygro). Reagent: single siRNA against human genes, 0.8 pmol siRNA per well. Time to read-out: 72 h. Read-out: 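Reporter luminescence and viable-cell signal on separate replicate plates, given as percent of non-targeting control and median/MAD z-scores, plus per-cell luciferase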. Reading the numbers: total luciferase, z-score and total luciferase, % of control: higher = more reporter protein produced; luciferase per cell, z-score: higher = more reporter output per viable cell; viable cells, % of control: higher = more viable cells. Hit rule: 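An siRNA counts as active if its total luciferase robust z-score exceeds 3; genes with two or more such siRNAs out of three were retested with fresh siRNAs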. Calls: active = raised luciferase; inactive = no rise.
Shown is a random part of about 59,000 reagents tested. About 1,510 of them (2.6%) were called active. 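Calls use total luciferase alone and ignore viability, so some active siRNAs may act by altering cell number.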 Reagents against one gene are numbered here. No sequences are given here.

no.	Target gene	siRNA no.	total luciferase, z-score	total luciferase, % of control	luciferase per cell, z-score	viable cells, % of control	call
1	MADD	1	-0.0685	80.5	0.049	88.8	inactive
2	MADD	2	-0.181	78.3	-0.577	102	inactive
3	MADD	3	-0.258	76.7	-0.212	90.7	inactive
4	TMSB10	1	3.92	160	2.74	86.9	active
5	TMSB10	2	0.142	84.7	0.0413	93.6	inactive
6	TMSB10	3	0.236	86.6	-0.181	101	inactive
7	HMBOX1	1	0.0793	83.5	0.589	79.9	inactive
8	HMBOX1	2	0.0931	83.7	-0.0942	95.9	inactive
9	HMBOX1	3	-0.0579	80.7	-0.28	97.1	inactive
10	GUSBP5	1	0.524	92.3	1.32	72.8	inactive
11	GUSBP5	2	-1.1	59.9	-0.478	76	inactive
12	GUSBP5	3	2.93	140	1.16	115	inactive
13	PFDN4	1	0.703	95.9	0.825	86.2	inactive
14	PFDN4	2	0.546	92.7	1.1	77.5	inactive
15	PFDN4	3	1.27	107	1.84	73.8	inactive
16	SLC10A2	1	0.791	97.6	0.293	101	inactive
17	SLC10A2	2	-1	62	-1.56	104	inactive
18	SLC10A2	3	0.371	89.3	0.184	95	inactive
19	CDAN1	1	0.579	93.4	1.27	74.7	inactive
20	CDAN1	2	0.403	89.9	0.167	96.2	inactive
21	CDAN1	3	1.25	107	0.654	100	inactive
22	OASL	1	-0.194	78	0.125	84.4	inactive
23	OASL	2	1.8	118	0.983	101	inactive
24	OASL	3	-0.267	76.6	0.174	81.8	inactive
25	ACVR1	1	0.352	88.9	-0.0756	101	inactive
26	ACVR1	2	2.57	133	1.31	105	inactive
27	ACVR1	3	0.401	89.9	-0.423	112	inactive
28	H1-3	1	1.22	106	0.632	100	inactive
29	H1-3	2	2.99	141	2	93.2	inactive
30	H1-3	3	0.222	86.3	0.272	89.8	inactive
31	COL9A1	1	-1.61	49.9	-1.91	92.2	inactive
32	COL9A1	2	3.09	143	2.29	87.7	active
33	COL9A1	3	0.267	87.2	-0.261	104	inactive
34	DMBT1L1	1	1.24	107	1.48	80.8	inactive
35	DMBT1L1	2	1.36	109	1.17	89.5	inactive
36	DMBT1L1	3	-1.05	61.1	0.057	67.2	inactive
37	MS4A6E	1	-1.03	61.3	-0.476	77.7	inactive
38	MS4A6E	2	-0.531	71.3	-0.551	92.1	inactive
39	MS4A6E	3	-0.533	71.3	-0.76	97.3	inactive
